The compounds below were run on primary rat cortical cultures (assay: Neutral red (NR) uptake cytotoxicity assay). Details: fitted NR curve, primary rat cortical neurons, 24 h.
Format: cell-based
Description: Female Wistar rats were obtained from Charles River Laboratories. The animals were allowed free access to rat chow and water, being maintained on a 12 h/12 h light/dark cycle, under controlled temperature (20 ± 2 °C) and humidity (40–60%). Primary cortical cultures were prepared as previously described. Briefly, for embryo collection, the pregnant female Wistar rats were anesthetized with isoflurane and subsequently administered ketamine and xylazine (200 + 100 μL, intraperitoneal). At the end of the dissection procedures, the female rat was euthanized with the administration of sodium pentobarbital ([…]). The embryos were used between embryonic day 16 (E16) and E19, considering the mating day as E0. The embryos were dissected from the uterus, and the heads were decapitated and placed in ice-cold 0.1 M PBS supplemented with 0.6% (w/v) glucose. The cortex dissection was performed under a Zeiss stereo microscope (Stemi DV4). Following trypsinization (0.05% trypsin/EDTA) and DNAse I treatment, the tissue pieces were mechanically dissociated, and the cells seeded in freshly prepared neurobasal medium (supplemented with 2% B-27, 100 U/mL of penicillin, 100 μg/mL of streptomycin, and 1% GlutaMAX^TM supplement) at a density of 150,000 cells/cm^2 in 96-well plates precoated, overnight, with 0.05 mg/mL PLL solution (prepared in 0.1 M borate buffer, pH 8.5). The cultures were maintained at 37 °C in a 5% CO2 air atmosphere. The medium was renewed at 4 days in vitro (DIV) by replacing half of the volume with fresh medium, and the cultures were used at 8 DIV.
The differentiated SH-SY5Y cells (25,000 cells/cm^2) and primary rat cortical cultures (150,000 cells/cm^2) were seeded onto 96-well plates as previously described.
Accordingly, 6 days after seeding (differentiated SH-SY5Y cells) or at 8 DIV (primary cultures), the cells were exposed, for 24 h (37 °C, 5% CO2), to different concentrations of the drugs (0–1000 µM). Thus, the tested concentrations ranged from 0 to 1000 µM for 2C-T-2 and 2C-T-4; 0 to 500 µM for 2C-T-7; 0 to 250 µM for 25T2-NBOMe, and 0 to 100 µM for 25T4-NBOMe and 25T7-NBOMe.
The NR uptake assay is based on the detection of viable cells through the incorporation of the NR dye by the cell’s lysosomes. In brief, after 24 h of exposure to the tested drugs, the differentiated SH-SY5Y cells and primary rat cortical cultures were incubated with NR (50 µg/mL in complete medium) for 90 or 210 min, respectively, at 37 °C, in a 5% CO2-95% air atmosphere. To extract the absorbed dye, an acidified ethanol solution was used, and the absorbance was then measured at 540 nm in a multi-well plate reader (PowerWaveX, BioTek Instruments, Winooski, VT, USA). The cytotoxicity was estimated by the percentage of NR uptake relative to the control cells, and a minimum of 4 independent experiments were conducted in triplicate.

SMILES | Hill slope
CCSc1cc(OC)c(CCN)cc1OC.Cl [2C-T-2, 2-(4-(ethylthio)-2,5-dimethoxyphenyl)ethan-1-aminium chloride] | 3.138
COc1cc(SC(C)C)c(OC)cc1CCNCc1ccccc1OC.Cl [25T4-NBOMe, 2-(4-(isopropylthio)-2,5-dimethoxyphenyl)-N-(2-methoxybenzyl)ethan-1-aminium chloride] | 2.526
CCCSc1cc(OC)c(CCN)cc1OC.Cl [2C-T-7, 2-(2,5-dimethoxy-4-(propylthio)phenyl)ethan-1-aminium chloride] | 2.560
CCSc1cc(OC)c(CCNCc2ccccc2OC)cc1OC.Cl [25T2-NBOMe, 2-(4-(ethylthio)-2,5-dimethoxyphenyl)-N-(2-methoxybenzyl)ethan-1-aminium chloride] | 3.102
CCCSc1cc(OC)c(CCNCc2ccccc2OC)cc1OC.Cl [25T7-NBOMe, 2-(2,5-dimethoxy-4-(propylthio)phenyl)-N-(2-methoxybenzyl)ethan-1-aminium chloride] | 2.557
COc1cc(SC(C)C)c(OC)cc1CCN.Cl [2C-T-4, 2-(4-(isopropylthio)-2,5-dimethoxyphenyl)ethan-1-aminium chloride] | 2.808
